# This is one part of the list. Only a few entries rise above the background.
# Key:
# Assay in all cases: fluorescence intensity of antibody binding to polysaccharide-coupled beads; higher = stronger binding
# [1] = molecular target: pneumococcal polysaccharide Pn16F
# Procedure: (§1)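 Recombinant rhesus-murine chimeric IgG1 antibodies were tested against antigen-coupled MagPlex beads in a 96-plex Luminex direct immunoassay (dLIA). The beads carried pneumococcal capsular polysaccharides of 93 serotypes plus C-polysaccharides. Antibody was added at 0.1–12,500 ng/mL for 1 h, then PE anti-mouse IgG, and net MFI was read on a Bio-Plex 3D. Only the rhesus variable regions are printed; constant regions are murine IgG1/kappa/lambda, and the signal peptide is MGWSCIILFLVATATGVHS.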
# [2] = molecular target: pneumococcal polysaccharide Pn17A
# Procedure: as §1
# [3] = molecular target: pneumococcal polysaccharide Pn17F
# Procedure: as §1
# [4] = molecular target: pneumococcal polysaccharide Pn18A
# Procedure: as §1
# [5] = molecular target: pneumococcal polysaccharide Pn18B
# Procedure: as §1
# [6] = molecular target: pneumococcal polysaccharide Pn18C
# Procedure: as §1
# [7] = molecular target: pneumococcal polysaccharide Pn18F
# Procedure: as §1
# [8] = molecular target: pneumococcal polysaccharide Pn19A
# Procedure: as §1
# [9] = molecular target: pneumococcal polysaccharide Pn19B
# Procedure: as §1
# [10] = molecular target: pneumococcal polysaccharide Pn19C
# Procedure: as §1
# [11] = molecular target: pneumococcal polysaccharide Pn19F
# Procedure: as §1
# [12] = molecular target: pneumococcal polysaccharide Pn2
# Procedure: as §1
# [13] = molecular target: pneumococcal polysaccharide Pn20A
# Procedure: as §1
# [14] = molecular target: pneumococcal polysaccharide Pn20B
# Procedure: as §1
# [15] = molecular target: pneumococcal polysaccharide Pn21
# Procedure: as §1
# [16] = molecular target: pneumococcal polysaccharide Pn22A
# Procedure: as §1
# [17] = molecular target: pneumococcal polysaccharide Pn22F
# Procedure: as §1
# [18] = molecular target: pneumococcal polysaccharide Pn23A
# Procedure: as §1
# [19] = molecular target: pneumococcal polysaccharide Pn23B
# Procedure: as §1
# [20] = molecular target: pneumococcal polysaccharide Pn23F
# Procedure: as §1
# [21] = molecular target: pneumococcal polysaccharide Pn24A
# Procedure: as §1
# [22] = molecular target: pneumococcal polysaccharide Pn24B
# Procedure: as §1
# [23] = molecular target: pneumococcal polysaccharide Pn24F
# Procedure: as §1
# [24] = antibody concentration 81.7561 ng/mL
# [25] = antibody concentration 437.17 ng/mL
# [26] = antibody concentration 2337.65 ng/mL
# [27] = antibody concentration 12500 ng/mL
# [28] = antibody concentration 0.1 ng/mL
# [29] = antibody concentration 0.534724 ng/mL
# [30] = antibody concentration 2.8593 ng/mL
# [31] = antibody concentration 15.2894 ng/mL
binder,measurement,setting,value
4-173.1 (protein) chain 1: QLQLQESGPGLVKPSETLSLTCAVSGASISSNYWSWIRQAPGKGLEWIGRISGSSGSTDYNPSLKSRVTISTDTSKNQFSLKLNSVTAADTAVYYCARVSYWGHYGDYWGQGVLVTVSS chain 2: QPVLTQPSSHSASPGAPARLTCTLSSGFSVGDFWIRWYQQKPGSPPRYLLYYHSDSDKHQGSGVPSRFSGSNDASANAGILHISGLQPEDEADYYCCTWHGNSKTQIFGAGTRLTVL,fluorescence intensity,[1]; [24],24.5 MFI
same,fluorescence intensity,[1]; [25],26 MFI
same,fluorescence intensity,[1]; [26],27.2 MFI
same,fluorescence intensity,[1]; [27],35.5 MFI
same,fluorescence intensity,[2]; [28],21.5 MFI
same,fluorescence intensity,[2]; [29],20.2 MFI
same,fluorescence intensity,[2]; [30],20 MFI
same,fluorescence intensity,[2]; [31],21.5 MFI
same,fluorescence intensity,[2]; [24],21.5 MFI
same,fluorescence intensity,[2]; [25],22.5 MFI
same,fluorescence intensity,[2]; [26],22.5 MFI
same,fluorescence intensity,[2]; [27],24 MFI
same,fluorescence intensity,[3]; [28],25.5 MFI
same,fluorescence intensity,[3]; [29],27 MFI
same,fluorescence intensity,[3]; [30],23.2 MFI
same,fluorescence intensity,[3]; [31],27.8 MFI
same,fluorescence intensity,[3]; [24],28 MFI
same,fluorescence intensity,[3]; [25],25 MFI
same,fluorescence intensity,[3]; [26],27.5 MFI
same,fluorescence intensity,[3]; [27],30 MFI
same,fluorescence intensity,[4]; [28],24 MFI
same,fluorescence intensity,[4]; [29],25 MFI
same,fluorescence intensity,[4]; [30],26.2 MFI
same,fluorescence intensity,[4]; [31],24 MFI
same,fluorescence intensity,[4]; [24],25 MFI
same,fluorescence intensity,[4]; [25],25 MFI
same,fluorescence intensity,[4]; [26],25.8 MFI
same,fluorescence intensity,[4]; [27],29 MFI
same,fluorescence intensity,[5]; [28],29.5 MFI
same,fluorescence intensity,[5]; [29],31 MFI
same,fluorescence intensity,[5]; [30],33.8 MFI
same,fluorescence intensity,[5]; [31],31 MFI
same,fluorescence intensity,[5]; [24],31 MFI
same,fluorescence intensity,[5]; [25],32.2 MFI
same,fluorescence intensity,[5]; [26],31.5 MFI
same,fluorescence intensity,[5]; [27],38 MFI
same,fluorescence intensity,[6]; [28],20 MFI
same,fluorescence intensity,[6]; [29],19 MFI
same,fluorescence intensity,[6]; [30],18 MFI
same,fluorescence intensity,[6]; [31],18 MFI
same,fluorescence intensity,[6]; [24],18 MFI
same,fluorescence intensity,[6]; [25],21 MFI
same,fluorescence intensity,[6]; [26],20 MFI
same,fluorescence intensity,[6]; [27],28.2 MFI
same,fluorescence intensity,[7]; [28],24 MFI
same,fluorescence intensity,[7]; [29],23.5 MFI
same,fluorescence intensity,[7]; [30],22 MFI
same,fluorescence intensity,[7]; [31],22.5 MFI
same,fluorescence intensity,[7]; [24],23 MFI
same,fluorescence intensity,[7]; [25],24.8 MFI
same,fluorescence intensity,[7]; [26],25.5 MFI
same,fluorescence intensity,[7]; [27],29.5 MFI
same,fluorescence intensity,[8]; [28],19.5 MFI
same,fluorescence intensity,[8]; [29],17.8 MFI
same,fluorescence intensity,[8]; [30],20 MFI
same,fluorescence intensity,[8]; [31],21 MFI
same,fluorescence intensity,[8]; [24],18 MFI
same,fluorescence intensity,[8]; [25],19 MFI
same,fluorescence intensity,[8]; [26],22 MFI
same,fluorescence intensity,[8]; [27],24.5 MFI
same,fluorescence intensity,[9]; [28],33.5 MFI
same,fluorescence intensity,[9]; [29],32 MFI
same,fluorescence intensity,[9]; [30],29 MFI
same,fluorescence intensity,[9]; [31],30 MFI
same,fluorescence intensity,[9]; [24],29 MFI
same,fluorescence intensity,[9]; [25],30.5 MFI
same,fluorescence intensity,[9]; [26],34 MFI
same,fluorescence intensity,[9]; [27],68.5 MFI
same,fluorescence intensity,[10]; [28],27.5 MFI
same,fluorescence intensity,[10]; [29],26.2 MFI
same,fluorescence intensity,[10]; [30],29 MFI
same,fluorescence intensity,[10]; [31],29 MFI
same,fluorescence intensity,[10]; [24],25.8 MFI
same,fluorescence intensity,[10]; [25],27.5 MFI
same,fluorescence intensity,[10]; [26],29 MFI
same,fluorescence intensity,[10]; [27],50 MFI
same,fluorescence intensity,[11]; [28],26 MFI
same,fluorescence intensity,[11]; [29],24.5 MFI
same,fluorescence intensity,[11]; [30],25.5 MFI
same,fluorescence intensity,[11]; [31],28.5 MFI
same,fluorescence intensity,[11]; [24],26.2 MFI
same,fluorescence intensity,[11]; [25],27.8 MFI
same,fluorescence intensity,[11]; [26],29.5 MFI
same,fluorescence intensity,[11]; [27],37.8 MFI
same,fluorescence intensity,[12]; [28],19 MFI
same,fluorescence intensity,[12]; [29],20 MFI
same,fluorescence intensity,[12]; [30],22.5 MFI
same,fluorescence intensity,[12]; [31],19.2 MFI
same,fluorescence intensity,[12]; [24],19.8 MFI
same,fluorescence intensity,[12]; [25],21 MFI
same,fluorescence intensity,[12]; [26],21 MFI
same,fluorescence intensity,[12]; [27],27 MFI
same,fluorescence intensity,[13]; [28],24 MFI
same,fluorescence intensity,[13]; [29],23.2 MFI
same,fluorescence intensity,[13]; [30],24.5 MFI
same,fluorescence intensity,[13]; [31],24 MFI
same,fluorescence intensity,[13]; [24],23.8 MFI
same,fluorescence intensity,[13]; [25],24.5 MFI
same,fluorescence intensity,[13]; [26],26 MFI
same,fluorescence intensity,[13]; [27],47.8 MFI
same,fluorescence intensity,[14]; [28],25.5 MFI
same,fluorescence intensity,[14]; [29],24 MFI
same,fluorescence intensity,[14]; [30],27 MFI
same,fluorescence intensity,[14]; [31],25.5 MFI
same,fluorescence intensity,[14]; [24],25.5 MFI
same,fluorescence intensity,[14]; [25],24.5 MFI
same,fluorescence intensity,[14]; [26],25 MFI
same,fluorescence intensity,[14]; [27],29.5 MFI
same,fluorescence intensity,[15]; [28],20.2 MFI
same,fluorescence intensity,[15]; [29],21 MFI
same,fluorescence intensity,[15]; [30],19.2 MFI
same,fluorescence intensity,[15]; [31],17.5 MFI
same,fluorescence intensity,[15]; [24],21 MFI
same,fluorescence intensity,[15]; [25],19.5 MFI
same,fluorescence intensity,[15]; [26],20.2 MFI
same,fluorescence intensity,[15]; [27],23 MFI
same,fluorescence intensity,[16]; [28],23.2 MFI
same,fluorescence intensity,[16]; [29],22 MFI
same,fluorescence intensity,[16]; [30],22.8 MFI
same,fluorescence intensity,[16]; [31],23 MFI
same,fluorescence intensity,[16]; [24],21.5 MFI
same,fluorescence intensity,[16]; [25],22 MFI
same,fluorescence intensity,[16]; [26],23.5 MFI
same,fluorescence intensity,[16]; [27],33 MFI
same,fluorescence intensity,[17]; [28],31.2 MFI
same,fluorescence intensity,[17]; [29],31.5 MFI
same,fluorescence intensity,[17]; [30],32.5 MFI
same,fluorescence intensity,[17]; [31],30 MFI
same,fluorescence intensity,[17]; [24],32.8 MFI
same,fluorescence intensity,[17]; [25],31 MFI
same,fluorescence intensity,[17]; [26],33 MFI
same,fluorescence intensity,[17]; [27],35.8 MFI
same,fluorescence intensity,[18]; [28],25.8 MFI
same,fluorescence intensity,[18]; [29],26 MFI
same,fluorescence intensity,[18]; [30],28 MFI
same,fluorescence intensity,[18]; [31],25.5 MFI
same,fluorescence intensity,[18]; [24],24.5 MFI
same,fluorescence intensity,[18]; [25],26 MFI
same,fluorescence intensity,[18]; [26],29.5 MFI
same,fluorescence intensity,[18]; [27],45.5 MFI
same,fluorescence intensity,[19]; [28],32 MFI
same,fluorescence intensity,[19]; [29],32.8 MFI
same,fluorescence intensity,[19]; [30],30.5 MFI
same,fluorescence intensity,[19]; [31],31.5 MFI
same,fluorescence intensity,[19]; [24],30 MFI
same,fluorescence intensity,[19]; [25],31 MFI
same,fluorescence intensity,[19]; [26],33 MFI
same,fluorescence intensity,[19]; [27],37 MFI
same,fluorescence intensity,[20]; [28],18.8 MFI
same,fluorescence intensity,[20]; [29],17.5 MFI
same,fluorescence intensity,[20]; [30],17.2 MFI
same,fluorescence intensity,[20]; [31],19 MFI
same,fluorescence intensity,[20]; [24],19 MFI
same,fluorescence intensity,[20]; [25],18.5 MFI
same,fluorescence intensity,[20]; [26],19.5 MFI
same,fluorescence intensity,[20]; [27],24.5 MFI
same,fluorescence intensity,[21]; [28],16.5 MFI
same,fluorescence intensity,[21]; [29],15.8 MFI
same,fluorescence intensity,[21]; [30],16.5 MFI
same,fluorescence intensity,[21]; [31],17 MFI
same,fluorescence intensity,[21]; [24],15.8 MFI
same,fluorescence intensity,[21]; [25],16.5 MFI
same,fluorescence intensity,[21]; [26],16 MFI
same,fluorescence intensity,[21]; [27],21 MFI
same,fluorescence intensity,[22]; [28],19 MFI
same,fluorescence intensity,[22]; [29],18 MFI
same,fluorescence intensity,[22]; [30],21 MFI
same,fluorescence intensity,[22]; [31],19.5 MFI
same,fluorescence intensity,[22]; [24],17 MFI
same,fluorescence intensity,[22]; [25],20 MFI
same,fluorescence intensity,[22]; [26],22.2 MFI
same,fluorescence intensity,[22]; [27],32 MFI
same,fluorescence intensity,[23]; [28],17.8 MFI
same,fluorescence intensity,[23]; [29],18.5 MFI
same,fluorescence intensity,[23]; [30],20.2 MFI
same,fluorescence intensity,[23]; [31],19 MFI
same,fluorescence intensity,[23]; [24],18.5 MFI
same,fluorescence intensity,[23]; [25],18.8 MFI
same,fluorescence intensity,[23]; [26],21.8 MFI
same,fluorescence intensity,[23]; [27],35.5 MFI

# A run of entries of the results above, for reference:
binder,measurement,setting,value
4-173.1 (protein) chain 1: QLQLQESGPGLVKPSETLSLTCAVSGASISSNYWSWIRQAPGKGLEWIGRISGSSGSTDYNPSLKSRVTISTDTSKNQFSLKLNSVTAADTAVYYCARVSYWGHYGDYWGQGVLVTVSS chain 2: QPVLTQPSSHSASPGAPARLTCTLSSGFSVGDFWIRWYQQKPGSPPRYLLYYHSDSDKHQGSGVPSRFSGSNDASANAGILHISGLQPEDEADYYCCTWHGNSKTQIFGAGTRLTVL,fluorescence intensity,[14]; [31],25.5 MFI
same,fluorescence intensity,[14]; [24],25.5 MFI
same,fluorescence intensity,[14]; [25],24.5 MFI
same,fluorescence intensity,[14]; [26],25 MFI
same,fluorescence intensity,[14]; [27],29.5 MFI
